Assay results: the supplement of paper PMC10849652
The list shows a part of the results. Residues, ends and D or L forms follow the SMILES beside them. *: point of attachment. Cbz = O=C(OCc1ccccc1)*

Chains of the proteins cited; added tags and fusions are not shown. Lines headed by an entry give the natural chain unless they say otherwise; changes in a name come on top.
UniProt O43148, whole entry, looked up: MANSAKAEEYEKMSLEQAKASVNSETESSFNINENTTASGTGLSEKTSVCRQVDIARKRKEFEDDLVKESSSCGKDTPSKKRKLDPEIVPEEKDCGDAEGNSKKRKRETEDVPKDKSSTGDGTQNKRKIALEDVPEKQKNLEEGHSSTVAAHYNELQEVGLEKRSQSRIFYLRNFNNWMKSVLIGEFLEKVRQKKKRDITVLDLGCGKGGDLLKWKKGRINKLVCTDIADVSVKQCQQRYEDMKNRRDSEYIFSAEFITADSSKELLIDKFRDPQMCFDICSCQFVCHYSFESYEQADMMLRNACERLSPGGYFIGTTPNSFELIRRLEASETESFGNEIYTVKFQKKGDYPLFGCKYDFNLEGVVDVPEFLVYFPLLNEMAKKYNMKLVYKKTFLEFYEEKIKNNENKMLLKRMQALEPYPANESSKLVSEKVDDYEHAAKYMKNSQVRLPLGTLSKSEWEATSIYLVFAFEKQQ
UniProt Q96AT9: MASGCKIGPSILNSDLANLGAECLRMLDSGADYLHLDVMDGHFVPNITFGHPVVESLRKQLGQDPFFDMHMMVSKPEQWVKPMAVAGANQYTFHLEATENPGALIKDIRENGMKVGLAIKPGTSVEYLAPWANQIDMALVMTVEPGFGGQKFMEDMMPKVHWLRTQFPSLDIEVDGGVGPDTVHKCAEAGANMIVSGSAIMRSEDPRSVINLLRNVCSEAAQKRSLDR
UniProt Q96BH1: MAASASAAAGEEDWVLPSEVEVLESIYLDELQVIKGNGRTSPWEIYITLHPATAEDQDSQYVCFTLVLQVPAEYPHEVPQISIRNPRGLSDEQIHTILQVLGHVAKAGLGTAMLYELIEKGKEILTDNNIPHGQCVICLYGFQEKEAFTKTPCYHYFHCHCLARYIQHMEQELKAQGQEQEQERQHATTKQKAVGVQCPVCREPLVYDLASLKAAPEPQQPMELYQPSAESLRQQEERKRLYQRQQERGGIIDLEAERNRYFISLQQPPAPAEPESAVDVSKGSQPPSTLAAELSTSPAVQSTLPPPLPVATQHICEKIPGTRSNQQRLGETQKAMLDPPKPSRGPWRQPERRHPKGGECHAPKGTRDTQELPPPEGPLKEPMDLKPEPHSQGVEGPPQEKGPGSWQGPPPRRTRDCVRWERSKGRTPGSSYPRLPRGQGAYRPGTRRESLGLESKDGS
UniProt P13489: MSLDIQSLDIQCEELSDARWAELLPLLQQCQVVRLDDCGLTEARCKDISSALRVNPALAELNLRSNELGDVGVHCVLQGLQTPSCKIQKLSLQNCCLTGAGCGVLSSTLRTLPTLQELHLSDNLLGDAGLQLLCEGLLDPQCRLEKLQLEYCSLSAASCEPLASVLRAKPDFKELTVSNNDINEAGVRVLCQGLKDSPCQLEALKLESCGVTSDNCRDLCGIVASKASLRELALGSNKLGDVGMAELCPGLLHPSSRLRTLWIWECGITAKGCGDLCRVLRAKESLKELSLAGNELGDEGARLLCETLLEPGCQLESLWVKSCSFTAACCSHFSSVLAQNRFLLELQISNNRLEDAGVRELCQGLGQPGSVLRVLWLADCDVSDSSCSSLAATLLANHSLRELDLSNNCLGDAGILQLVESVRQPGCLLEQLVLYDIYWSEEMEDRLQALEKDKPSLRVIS
UniProt P04843: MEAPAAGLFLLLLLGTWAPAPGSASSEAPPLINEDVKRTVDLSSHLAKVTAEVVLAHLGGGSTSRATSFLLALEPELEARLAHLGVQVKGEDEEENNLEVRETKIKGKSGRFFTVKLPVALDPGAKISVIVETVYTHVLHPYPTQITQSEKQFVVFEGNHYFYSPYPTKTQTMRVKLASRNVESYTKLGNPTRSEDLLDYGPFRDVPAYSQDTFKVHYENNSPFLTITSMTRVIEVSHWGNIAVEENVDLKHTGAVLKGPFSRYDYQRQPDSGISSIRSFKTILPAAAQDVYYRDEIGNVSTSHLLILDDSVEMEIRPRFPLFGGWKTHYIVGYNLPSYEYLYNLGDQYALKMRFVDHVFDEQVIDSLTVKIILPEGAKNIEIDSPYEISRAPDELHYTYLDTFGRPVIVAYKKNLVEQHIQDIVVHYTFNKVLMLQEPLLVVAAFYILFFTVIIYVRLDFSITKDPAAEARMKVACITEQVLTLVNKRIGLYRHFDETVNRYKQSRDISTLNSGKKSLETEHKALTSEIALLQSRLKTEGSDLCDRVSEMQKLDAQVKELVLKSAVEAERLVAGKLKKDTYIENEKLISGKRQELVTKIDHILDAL
UniProt P49247: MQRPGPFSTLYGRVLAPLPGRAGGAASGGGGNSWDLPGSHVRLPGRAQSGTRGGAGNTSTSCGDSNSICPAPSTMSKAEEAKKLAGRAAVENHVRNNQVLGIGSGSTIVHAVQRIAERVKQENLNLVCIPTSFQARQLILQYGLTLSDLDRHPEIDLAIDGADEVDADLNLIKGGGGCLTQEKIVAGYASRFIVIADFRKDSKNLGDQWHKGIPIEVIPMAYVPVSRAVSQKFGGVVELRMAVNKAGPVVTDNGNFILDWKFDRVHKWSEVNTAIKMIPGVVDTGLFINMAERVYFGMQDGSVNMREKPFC
UniProt O60942: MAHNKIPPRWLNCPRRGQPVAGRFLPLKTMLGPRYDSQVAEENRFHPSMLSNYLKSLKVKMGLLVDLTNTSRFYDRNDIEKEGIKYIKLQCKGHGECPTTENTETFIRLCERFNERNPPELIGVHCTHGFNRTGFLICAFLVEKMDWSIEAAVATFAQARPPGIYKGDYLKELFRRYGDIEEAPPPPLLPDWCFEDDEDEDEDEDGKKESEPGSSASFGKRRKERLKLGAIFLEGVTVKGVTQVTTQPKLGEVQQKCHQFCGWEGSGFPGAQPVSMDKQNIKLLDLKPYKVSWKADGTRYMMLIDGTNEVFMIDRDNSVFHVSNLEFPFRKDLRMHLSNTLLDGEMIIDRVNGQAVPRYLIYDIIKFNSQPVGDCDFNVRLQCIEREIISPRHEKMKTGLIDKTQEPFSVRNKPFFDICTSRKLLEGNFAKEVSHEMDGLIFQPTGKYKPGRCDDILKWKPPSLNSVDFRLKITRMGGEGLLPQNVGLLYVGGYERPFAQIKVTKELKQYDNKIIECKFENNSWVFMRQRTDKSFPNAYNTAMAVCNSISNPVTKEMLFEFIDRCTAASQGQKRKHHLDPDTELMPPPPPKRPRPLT
UniProt P10301: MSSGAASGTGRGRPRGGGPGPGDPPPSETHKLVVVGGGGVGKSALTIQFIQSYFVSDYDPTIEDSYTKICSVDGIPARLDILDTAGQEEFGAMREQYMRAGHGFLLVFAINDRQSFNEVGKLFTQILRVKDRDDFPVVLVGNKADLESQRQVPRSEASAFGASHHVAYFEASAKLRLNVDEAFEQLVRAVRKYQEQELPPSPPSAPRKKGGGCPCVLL
UniProt Q7LG56, whole entry, looked up: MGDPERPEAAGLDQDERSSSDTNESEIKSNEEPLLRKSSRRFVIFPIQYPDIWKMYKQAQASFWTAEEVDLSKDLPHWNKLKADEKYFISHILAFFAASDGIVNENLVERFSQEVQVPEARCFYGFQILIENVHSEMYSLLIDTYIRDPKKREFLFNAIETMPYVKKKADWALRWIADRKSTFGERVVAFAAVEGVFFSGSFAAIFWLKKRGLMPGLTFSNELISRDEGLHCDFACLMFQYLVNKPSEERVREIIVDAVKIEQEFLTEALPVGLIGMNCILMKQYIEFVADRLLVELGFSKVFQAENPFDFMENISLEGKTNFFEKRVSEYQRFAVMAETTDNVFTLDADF
UniProt Q9BUL9: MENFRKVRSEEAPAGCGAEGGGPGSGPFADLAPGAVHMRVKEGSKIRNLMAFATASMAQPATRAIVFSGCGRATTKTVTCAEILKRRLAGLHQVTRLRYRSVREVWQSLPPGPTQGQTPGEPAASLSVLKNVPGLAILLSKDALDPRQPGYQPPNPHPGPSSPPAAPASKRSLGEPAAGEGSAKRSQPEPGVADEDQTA
UniProt P15927: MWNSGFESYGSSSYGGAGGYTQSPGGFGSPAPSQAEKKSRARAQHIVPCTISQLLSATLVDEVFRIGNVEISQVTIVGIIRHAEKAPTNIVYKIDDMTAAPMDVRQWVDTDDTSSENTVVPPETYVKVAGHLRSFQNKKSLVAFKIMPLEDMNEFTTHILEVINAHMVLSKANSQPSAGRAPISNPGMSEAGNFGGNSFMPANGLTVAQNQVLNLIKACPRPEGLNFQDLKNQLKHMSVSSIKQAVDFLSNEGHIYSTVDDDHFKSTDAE
UniProt Q92901: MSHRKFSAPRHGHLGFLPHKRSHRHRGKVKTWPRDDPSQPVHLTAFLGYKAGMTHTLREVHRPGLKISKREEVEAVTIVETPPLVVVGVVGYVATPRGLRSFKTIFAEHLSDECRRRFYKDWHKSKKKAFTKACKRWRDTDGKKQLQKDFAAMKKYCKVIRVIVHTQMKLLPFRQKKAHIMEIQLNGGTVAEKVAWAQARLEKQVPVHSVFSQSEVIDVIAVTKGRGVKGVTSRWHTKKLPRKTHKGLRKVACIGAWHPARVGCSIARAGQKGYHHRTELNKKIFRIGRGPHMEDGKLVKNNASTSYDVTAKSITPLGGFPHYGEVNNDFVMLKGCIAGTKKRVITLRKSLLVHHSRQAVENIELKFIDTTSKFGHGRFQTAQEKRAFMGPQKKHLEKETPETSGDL

Tests used:
Assay in all cases: log2 fold change, soluble protein after heating vs DMSO (PISA); higher = thermal stabilisation; K562 cells, 10 uM, 30 min; active = over 0.2 and 3.5 SD of the protein, either way, in both replicates (recomputed)
IRAK-1-4 Inhibitor I = compound: C1COCCN1CCN2C3=CC=CC=C3N=C2NC(=O)C4=CC(=CC=C4)[N+](=O)[O-] [IRAK-1-4 Inhibitor I]
In short: (§1)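 Aliquots of K562 cells (2×10^6 cells/mL) treated with 10 μM compound for 30 min were heated for 3 min over 48°C-58°C. After pooling and extraction in PBS with 0.5% NP-40 at 4°C, soluble protein from a 21,000xg, 90 min spin was quantified by TMTpro 16plex LC-MS/MS with channel sums equalised. Thermal stability is expressed against control samples, from duplicates, as a log2 fold change.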

ibrutinib = compound: C=CC(=O)N1CCC[C@@H](n2nc(-c3ccc(Oc4ccccc4)cc3)c3c(N)ncnc32)C1 [ibrutinib]
In short: as §1

[1] = compound: CC(=O)c1cnc2ccc(-c3cc(Cl)c(O)c(Cl)c3)nc2c1N[C@H]1CC[C@H](CN(C)C)CC1
In short: as §1

ralimetinib = compound: CC(C)(C)Cn1c(N)nc2ccc(-c3[nH]c(C(C)(C)C)nc3-c3ccc(F)cc3)nc21 [ralimetinib]
In short: as §1

[2] = compound: CC(C)(O)CC(=O)NCCn1ccc2ncnc(Nc3ccc(Oc4cccc(C(F)(F)F)c4)c(Cl)c3)c21
In short: as §1

[3] = compound: CC(C)C1=C2N=C(C=C(N2N=C1)NCC3=CC=CC=C3)NCCCCCCN
In short: as §1

[4] = compound: CC(C)C[C@@H](C=O)NC(=O)[C@H](CC(C)C)NC(=O)[C@H](CC(C)C)NC(=O)OCc1ccccc1
In short: as §1

pinometostat = compound: CC(C)N(C[C@H]1O[C@@H](n2cnc3c(N)ncnc32)[C@H](O)[C@@H]1O)[C@H]1C[C@@H](CCc2nc3cc(C(C)(C)C)ccc3[nH]2)C1 [pinometostat]
In short: as §1

[5] = compound: CC1=C(C(CC(=O)N1)C2=CC=C(C=C2)C(F)(F)F)C(=O)NC3=C(C=C4C(=C3)C=NN4)F
In short: as §1

[6] = compound: CC1=C(C2=C(C=C1)C(=O)C3=CC=CC=C3N2CCCN)C
In short: as §1

Measured: log2 fold change

RNMT isoform 2 (UniProt O43148)
inactive: IRAK-1-4 Inhibitor I -0.041 | ibrutinib 0.019 | [1] 0.013 | ralimetinib 0.042 | [2] 0.02 | [3] 0.048 | [4] 0.072 | pinometostat 0.042 | [5] 0.012 | [6] 0.122

RPL36A (UniProt P83881)
inactive: IRAK-1-4 Inhibitor I -0.203 | ibrutinib 0.032 | [1] 0.123 | ralimetinib 0.163 | [2] 0.363 | [3] 0.027 | [4] 0.203 | pinometostat 0.343 | [5] 0.02 | [6] -0.533

RPL30 (UniProt P62888)
inactive: IRAK-1-4 Inhibitor I -0.364 | ibrutinib 0.115 | [1] 0.279 | ralimetinib 0.266 | [2] 0.088 | [3] 0.047 | [4] 0.173 | pinometostat 0.5 | [5] 0.123 | [6] -1.06

RPS8 (UniProt P62241)
inactive: IRAK-1-4 Inhibitor I -0.111 | ibrutinib 0.079 | [1] 0.123 | ralimetinib 0.186 | [2] 0.034 | [3] 0 | [4] 0.068 | pinometostat 0.353 | [5] 0.067 | [6] -0.696

RPL22 (UniProt P35268)
inactive: IRAK-1-4 Inhibitor I -0.083 | ibrutinib 0.023 | [1] -0.011 | ralimetinib 0.275 | [2] 0.064 | [3] 0.032 | [4] 0.149 | pinometostat 0.258 | [5] 0.012 | [6] -0.524

RPE (UniProt Q96AT9)
inactive: IRAK-1-4 Inhibitor I 0.109 | ibrutinib 0.032 | [1] -0.047 | ralimetinib -0.088 | [2] -0.13 | [3] 0 | [4] -0.055 | pinometostat -0.032 | [5] -0.056 | [6] 0.149

RPL18A (UniProt Q02543)
inactive: IRAK-1-4 Inhibitor I -0.275 | ibrutinib 0.055 | [1] 0.355 | ralimetinib 0.232 | [2] 0.046 | [3] 0.003 | [4] 0.181 | pinometostat 0.606 | [5] 0.068 | [6] -0.856

RNF25 (UniProt Q96BH1)
inactive: IRAK-1-4 Inhibitor I 0.047 | ibrutinib 0.011 | [1] -0.024 | ralimetinib 0.028 | [2] -0.039 | [3] -0.033 | [4] -0.013 | pinometostat -0.035 | [5] 0.008 | [6] 0.071

RPS6 (UniProt P62753)
inactive: IRAK-1-4 Inhibitor I -0.161 | ibrutinib 0.018 | [1] 0.213 | ralimetinib 0.284 | [2] 0.039 | [3] -0.064 | [4] 0.072 | pinometostat 0.42 | [5] 0.08 | [6] -0.647

RNH1 (UniProt P13489)
inactive: IRAK-1-4 Inhibitor I 0.066 | ibrutinib -0.013 | [1] 0.043 | ralimetinib -0.003 | [2] -0.062 | [3] -0.119 | [4] -0.029 | pinometostat -0.022 | [5] 0.094 | [6] -0.01

RPN1 (UniProt P04843)
inactive: IRAK-1-4 Inhibitor I 0.045 | ibrutinib -0.019 | [1] -0.023 | ralimetinib -0.048 | [2] -0.065 | [3] -0.086 | [4] -0.01 | pinometostat -0.005 | [5] -0.001 | [6] 0.054

6 successive entries out of the list so far, for reference:
RPS8 (UniProt P62241)
inactive: IRAK-1-4 Inhibitor I -0.111 | ibrutinib 0.079 | [1] 0.123 | ralimetinib 0.186 | [2] 0.034 | [3] 0 | [4] 0.068 | pinometostat 0.353 | [5] 0.067 | [6] -0.696

RPL22 (UniProt P35268)
inactive: IRAK-1-4 Inhibitor I -0.083 | ibrutinib 0.023 | [1] -0.011 | ralimetinib 0.275 | [2] 0.064 | [3] 0.032 | [4] 0.149 | pinometostat 0.258 | [5] 0.012 | [6] -0.524

RPE (UniProt Q96AT9)
inactive: IRAK-1-4 Inhibitor I 0.109 | ibrutinib 0.032 | [1] -0.047 | ralimetinib -0.088 | [2] -0.13 | [3] 0 | [4] -0.055 | pinometostat -0.032 | [5] -0.056 | [6] 0.149

RPL18A (UniProt Q02543)
inactive: IRAK-1-4 Inhibitor I -0.275 | ibrutinib 0.055 | [1] 0.355 | ralimetinib 0.232 | [2] 0.046 | [3] 0.003 | [4] 0.181 | pinometostat 0.606 | [5] 0.068 | [6] -0.856

RNF25 (UniProt Q96BH1)
inactive: IRAK-1-4 Inhibitor I 0.047 | ibrutinib 0.011 | [1] -0.024 | ralimetinib 0.028 | [2] -0.039 | [3] -0.033 | [4] -0.013 | pinometostat -0.035 | [5] 0.008 | [6] 0.071

RPS6 (UniProt P62753)
inactive: IRAK-1-4 Inhibitor I -0.161 | ibrutinib 0.018 | [1] 0.213 | ralimetinib 0.284 | [2] 0.039 | [3] -0.064 | [4] 0.072 | pinometostat 0.42 | [5] 0.08 | [6] -0.647

Following part:

RPL7 (UniProt P18124)
inactive: IRAK-1-4 Inhibitor I -0.287 | ibrutinib 0.1 | [1] 0.293 | ralimetinib 0.256 | [2] 0.105 | [3] -0.015 | [4] 0.188 | pinometostat 0.581 | [5] 0.095 | [6] -1.03

RPL39P5 (UniProt Q59GN2)
inactive: IRAK-1-4 Inhibitor I -0.222 | ibrutinib 0.109 | [1] 0.194 | ralimetinib 0.221 | [2] 0.108 | [3] 0.075 | [4] 0.225 | pinometostat 0.206 | [5] 0.096 | [6] -0.567

RPL17 isoform 3 (UniProt P18621)
inactive: IRAK-1-4 Inhibitor I -0.201 | ibrutinib 0.202 | [1] 0.174 | ralimetinib 0.248 | [2] 0.023 | [3] -0.027 | [4] 0.216 | pinometostat 0.33 | [5] -0.005 | [6] -0.661

RPL23 (UniProt P62829)
inactive: IRAK-1-4 Inhibitor I -0.12 | ibrutinib 0.041 | [1] 0.15 | ralimetinib 0.166 | [2] 0 | [3] -0.015 | [4] 0.087 | pinometostat 0.318 | [5] 0.038 | [6] -0.243

RPL27A (UniProt P46776)
inactive: IRAK-1-4 Inhibitor I -0.147 | ibrutinib 0.073 | [1] 0.175 | ralimetinib 0.157 | [2] 0.034 | [3] 0 | [4] 0.073 | pinometostat 0.445 | [5] 0.13 | [6] -0.677

RPS15A (UniProt P62244)
inactive: IRAK-1-4 Inhibitor I -0.122 | ibrutinib 0.02 | [1] 0.181 | ralimetinib 0.109 | [2] 0.012 | [3] -0.058 | [4] 0.109 | pinometostat 0.38 | [5] 0.057 | [6] -0.555

RPIA (UniProt P49247)
inactive: IRAK-1-4 Inhibitor I 0.028 | ibrutinib -0.004 | [1] 0.006 | ralimetinib -0.038 | [2] -0.038 | [3] 0.041 | [4] -0.039 | pinometostat 0 | [5] 0.008 | [6] 0.025

RPL9 (UniProt P32969)
inactive: IRAK-1-4 Inhibitor I -0.32 | ibrutinib 0.104 | [1] 0.241 | ralimetinib 0.268 | [2] 0 | [3] -0.064 | [4] 0.06 | pinometostat 0.462 | [5] 0.116 | [6] -0.686

RNGTT (UniProt O60942)
inactive: IRAK-1-4 Inhibitor I -0.041 | ibrutinib -0.109 | [1] -0.052 | ralimetinib -0.117 | [2] -0.02 | [3] -0.021 | [4] 0.048 | pinometostat -0.396 | [5] -0.011 | [6] 0.071

RPL10 (UniProt P27635)
inactive: IRAK-1-4 Inhibitor I -0.227 | ibrutinib 0.056 | [1] 0.156 | ralimetinib 0.283 | [2] 0 | [3] -0.042 | [4] 0.096 | pinometostat 0.477 | [5] 0.072 | [6] -0.496

RRAS (UniProt P10301)
inactive: IRAK-1-4 Inhibitor I -0.015 | ibrutinib 0.049 | [1] -0.053 | ralimetinib -0.053 | [2] 0.027 | [3] 0.066 | [4] 0.015 | pinometostat -0.032 | [5] -0.003 | [6] 0.07

RRM2B isoform 6 (UniProt Q7LG56)
inactive: IRAK-1-4 Inhibitor I 0.019 | ibrutinib 0.025 | [1] -0.057 | ralimetinib -0.022 | [2] 0.024 | [3] 0.069 | [4] 0.013 | pinometostat 0.05 | [5] -0.016 | [6] 0.023

RPL26L1 (UniProt Q9UNX3)
inactive: IRAK-1-4 Inhibitor I -0.254 | ibrutinib 0.019 | [1] 0.164 | ralimetinib 0.167 | [2] 0 | [3] -0.029 | [4] 0.131 | pinometostat 0.245 | [5] -0.003 | [6] -0.488

RPL6 (UniProt Q02878)
inactive: IRAK-1-4 Inhibitor I -0.241 | ibrutinib 0.062 | [1] 0.285 | ralimetinib 0.248 | [2] 0.266 | [3] 0.028 | [4] 0.185 | pinometostat 0.59 | [5] 0.072 | [6] -0.908

RPP25 (UniProt Q9BUL9)
inactive: IRAK-1-4 Inhibitor I 0.015 | ibrutinib 0.021 | [1] 0.023 | ralimetinib 0.051 | [2] 0.006 | [3] -0.057 | [4] -0.039 | pinometostat 0.132 | [5] 0.086 | [6] -0.073

RPA2 isoform 3 (UniProt P15927)
inactive: IRAK-1-4 Inhibitor I 0.023 | ibrutinib 0.04 | [1] -0.003 | ralimetinib -0.086 | [2] 0.014 | [3] 0.024 | [4] 0.094 | pinometostat -0.012 | [5] 0.111 | [6] 0.03

RPL24 (UniProt P83731)
inactive: IRAK-1-4 Inhibitor I -0.176 | ibrutinib 0.005 | [1] 0.188 | ralimetinib 0.167 | [2] 0.004 | [3] -0.019 | [4] 0.147 | pinometostat 0.341 | [5] 0.111 | [6] -0.544

RPL3L (UniProt Q92901)
inactive: IRAK-1-4 Inhibitor I -0.208 | ibrutinib 0.052 | [1] 0.258 | ralimetinib 0.118 | [2] 0.084 | [3] -0.043 | [4] 0.088 | pinometostat 0.561 | [5] 0.079 | [6] -1.06

RPS28 (UniProt P62857)
inactive: IRAK-1-4 Inhibitor I -0.082 | ibrutinib -0.058 | [1] 0.061 | ralimetinib 0.045 | [2] 0.091 | [3] 0.116 | [4] 0.169 | pinometostat 0.024 | [5] 0.029 | [6] -0.138
